# Data from PubChem BioAssay AID588497 (NMMLSC, 2011).
# Screen size: about 360,000 compounds; about 780 (0.22%) were called active. This list was built around the results that the source calls inconclusive (neither active nor inactive); the mix of calls is not that of the screen. Cut-off read from the data, not from the text of the source: active = inhibition above about 35% (passing the limit was not always enough); inconclusive = no clear call, values can overlap the other calls.
# System: Botulinum neurotoxin type F light chain protease (Clostridium botulinum)
# Assay: BoNT/F light chain protease inhibitors, primary screen, biochemical, flow cytometry, MLPCN library (AID 588497); note: plate controls were buffer without enzyme for full effect and enzyme alone for no effect
# Details: Multiplex microsphere protease cleavage assay, at 10 µM, stronger effect = higher value
row,Structure (SMILES),inhibition
1,CC1OC2CC(=O)OC2C2=C1C(=O)c1c(O)cccc1C2=O (configuration not stated),inactive: 1.2%
2,COc1ccc(C(=O)Nc2ccccc2N2CCCC2)cc1S(=O)(=O)N1CCOCC1,inactive: -12.6%
3,NNC(=O)c1ccc(Cn2cc(Br)cn2)o1,inconclusive: 23.8%
4,COc1cc2c(cc1OC)C(c1ccc([N+](=O)[O-])cc1)N(C(C)=O)CC2 (configuration not stated),inconclusive: 0.6%
5,COc1ccc(-n2c(SCC(N)=O)nnc2-c2ccco2)cc1,inconclusive: 1.5%
6,CSc1nc(N)nc(SCC(=O)c2ccccc2)c1C#N,inactive: -11%
7,COc1ccccc1N1C(=O)c2cccnc2C1=O,inconclusive: 17.2%
8,CCC/C(O)=C1\C(=O)CC(C)(C)CC1=NCc1ccccc1,inconclusive: 50%
9,COc1cc(-c2ccc(NC(C)=O)c(OC)c2)ccc1NC(C)=O,inconclusive: -30.4%
10,O=C(CN1CCN(Cc2ccccc2)CC1)Nc1nnc(C(F)(F)F)s1,inconclusive: -12.2%
11,O=c1c2c3c(sc2n2c(=S)[nH]nc2n1-c1ccccc1)CCC3,inconclusive: -18.7%
12,CC1CN(CCn2cnc3c(N)ncnc32)CC(C)O1 (configuration not stated),inconclusive: 164%
13,CSc1nc2c(c(=O)[nH]c(=O)n2C)n1Cc1ccccc1,inconclusive: 18.5%
14,O=C(Nc1ccccc1)OCCOc1ccccc1Br,inconclusive: -51.7%
15,Cc1cc(-c2onc(C)c2C(=O)N/N=C/c2ccccc2)no1,inconclusive: 88.1%
16,O=C(CC1CCCC1)N1CCN(S(=O)(=O)c2ccc(F)cc2)CC1,inactive: -0.2%
17,CCN(CC)C(=O)c1ccc2c(c1)C1C(Cl)C(Sc3ccccc3[N+](=O)[O-])CC1C(C(=O)O)N2 (configuration not stated),inconclusive: -21.6%
18,CCc1c(C)nc(N)nc1N1N=C1SCC#N,inactive: 1.5%
19,N#CC12COC3(CCCCC3C1(C#N)C#N)OC2=N (configuration not stated),inactive: -4.3%

row,Structure (SMILES),inhibition
1,COC(=O)C1CCN(C(=O)COC(=O)c2cccc(NS(=O)(=O)c3ccccc3)c2)CC1,inconclusive: -6.3%
2,Cc1ccc(CSc2nnc3c(n2)OC2(Nc4ccccc4-3)C(=O)Nc3ccc(F)cc32)cc1 (configuration not stated),inactive: -7%
3,COc1cccc(C(c2c(N)[nH]c(=S)[nH]c2=O)c2c(N)[nH]c(=S)[nH]c2=O)c1,inconclusive: -32.9%
4,CCOc1ccc2oc(-c3ccccc3)c(C(=O)N3CCN(CCO)CC3)c2c1,inactive: 2.3%
5,CCOC(=O)c1cnc2nc(SCc3ccccc3Cl)[nH]n2c1=O,inconclusive: -32.4%
6,CCOC(=O)[C@]12CCC=C1N(Cc1ccc3c(c1)OCO3)C(=O)[C@H](CC(=O)NCc1cccc(C(F)(F)F)c1)C2,inactive: -0.2%
7,CCC(=NCc1cccnc1)c1c(O)n(-c2ccc(C)cc2)c(=O)[nH]c1=O,inconclusive: -20.5%
8,O=C(NCc1ccccn1)c1cc(S(=O)(=O)N2CCCCC2)ccc1Cl,inconclusive: 11.3%
9,Cc1cccc(NC(=O)C(Cc2ccccc2)c2nn[nH]n2)c1C (configuration not stated),inconclusive: 2.2%
10,CN1CCN(c2ccc(S(=O)(=O)N3CCOCC3)cc2NC(=O)CC(C)(C)C)CC1,inconclusive: -7.4%
11,CCN(CC(=O)Nc1ccc(OC)cc1)C(=O)c1cc(S(=O)(=O)N(C)C)ccc1N1CCCC1,inconclusive: -9.8%
12,CC(c1ccccc1)N1C(=O)c2cccnc2C1=O (configuration not stated),inconclusive: 25.6%
13,Cc1csc(NC(=O)Cc2c(F)cccc2Cl)n1,inconclusive: -19.9%
14,CC1(C(=O)Nc2ccc(F)cc2F)CCN1C(=O)Cc1ccccc1 (configuration not stated),inactive: -5.5%
15,COC(=O)c1c(C)noc1-c1ccc(Cl)cc1,inconclusive: 64.2%
16,OCCN(CC#CCC(O)(c1ccccc1)C1CCCC1)CCO (configuration not stated),inconclusive: 39.6%
17,O=C(NCCNc1ccc([N+](=O)[O-])cc1)c1cccs1,inconclusive: 27%
18,Cc1ccc(C)c(N2CCN(C(=O)Cn3cccc3)CC2)c1,inactive: -10.8%
19,CCOC(=O)c1cccc(NC(=O)c2cc3ccccc3o2)c1,inconclusive: -12.7%

# Some of the entries so far, with tabs.
row	Structure (SMILES)	inhibition
7	CCC(=NCc1cccnc1)c1c(O)n(-c2ccc(C)cc2)c(=O)[nH]c1=O	inconclusive: -20.5%
8	O=C(NCc1ccccn1)c1cc(S(=O)(=O)N2CCCCC2)ccc1Cl	inconclusive: 11.3%
9	Cc1cccc(NC(=O)C(Cc2ccccc2)c2nn[nH]n2)c1C (configuration not stated)	inconclusive: 2.2%
10	CN1CCN(c2ccc(S(=O)(=O)N3CCOCC3)cc2NC(=O)CC(C)(C)C)CC1	inconclusive: -7.4%
11	CCN(CC(=O)Nc1ccc(OC)cc1)C(=O)c1cc(S(=O)(=O)N(C)C)ccc1N1CCCC1	inconclusive: -9.8%
12	CC(c1ccccc1)N1C(=O)c2cccnc2C1=O (configuration not stated)	inconclusive: 25.6%
13	Cc1csc(NC(=O)Cc2c(F)cccc2Cl)n1	inconclusive: -19.9%
14	CC1(C(=O)Nc2ccc(F)cc2F)CCN1C(=O)Cc1ccccc1 (configuration not stated)	inactive: -5.5%
15	COC(=O)c1c(C)noc1-c1ccc(Cl)cc1	inconclusive: 64.2%
16	OCCN(CC#CCC(O)(c1ccccc1)C1CCCC1)CCO (configuration not stated)	inconclusive: 39.6%
17	O=C(NCCNc1ccc([N+](=O)[O-])cc1)c1cccs1	inconclusive: 27%

# Additional compounds:

row,Structure (SMILES),inhibition
1,O=C(OCC(=O)N1CCN(c2ccccc2)CC1)c1cccc([N+](=O)[O-])c1,inconclusive: -3.3%
2,CC(C)Oc1cccc(C(=O)NC(=S)Nc2ccc(N3CCN(C)CC3)cc2)c1,inconclusive: -155%
3,Cc1cccc(-n2c(O)c(C=NCCN3CCCCC3)c(=O)[nH]c2=O)c1,inconclusive: -56%
4,COc1ccc(CN2c3cc(S(=O)(=O)N4CCOCC4)ccc3N3CCCC32)cc1 (configuration not stated),inconclusive: 21.3%
5,CCOC(=O)c1cnn(-c2c(Cc3ccccc3)c(C)nc3c(-c4ccccc4)c(C)nn23)c1N,inactive: 4%
6,FC(F)(F)c1nnc2ccc(N3CCOCC3)nn12,inconclusive: -21.6%
7,Cn1c2c(c(=O)[nH]c1=O)C(c1ccc(O)cc1)C1=C(N2)c2ccccc2C1=O (configuration not stated),inactive: 0.3%
8,O=C(CSc1ncn(-c2ccccc2)n1)Nc1nc(-c2ccccc2)cs1,inactive: 0.7%
9,NS(=O)(=O)c1cccc(NC(=O)Nc2ccccc2)c1,inconclusive: 59.2%
10,CC1(C)Cc2nc3sc(C(=O)NCCCO)c(N)c3cc2CO1,inconclusive: -142%
11,COc1ccc(Cl)cc1NC(=O)CN1CCc2ccccc2C1,inconclusive: 12.8%
12,COc1ccc(NC(=O)CSCc2cc(=O)n3c(C)csc3n2)cc1,inactive: 2.5%
13,CN=C1CC(C)(C)CC(=O)/C1=C(/O)CCC(=O)NC,inconclusive: 2.8%
14,Cc1ccc(Cl)cc1N1CCN(C(=O)CN(C2CCCCC2)S(C)(=O)=O)CC1,inconclusive: -1.1%
15,CCOc1cccc(/C=N/NC(=O)c2cccnc2)c1O,inconclusive: 14.8%
16,CC(C)(C)S(=O)(=O)c1ccccc1-c1noc(-c2ccccc2)c1C(N)=O,inconclusive: 72%
17,Cc1ccc(N(C(C)C(=O)N2CCCCC2)S(C)(=O)=O)cc1C (configuration not stated),inactive: 4%
18,O=C(Nc1ccno1)Nc1ccc(Cl)cc1Cl,inconclusive: -60%
19,CC(OC(=O)c1ccc(Cl)c(S(=O)(=O)N2CCOCC2)c1)C(=O)Nc1ccc(S(N)(=O)=O)cc1 (configuration not stated),inconclusive: 0.8%
